According to PubChem BioAssay AID272 (DTP/NCI, 2004):
The list does not hold the whole screen: it gathers tests that were run many times, whatever their T/C, doses with no T/C, and many T/C values between a quarter and a half above the control. Further doses and runs are listed elsewhere. T/C: endpoint of the treated group in % of that of the vehicle group. Some T/C values are followed by the survivors on the day toxicity was checked, most often the fifth; without a count, all were alive then. Schedule codes are those of the source, read here as Q, the interval in days (D) or hours (H), X, the number of doses. Some doses have a count of surviving animals in place of a T/C: the source holds a T/C of zero for them, seemingly a mark for toxic or unscored doses. Some doses without a T/C left all or most animals alive at the check, yet need not have been tolerated: the source hardly ever lists a survival T/C far under the control, and the zero likely stands for such cases as well. Counts of survivors are from the toxicity check (mostly the fifth day) where no day follows; animals may have died later. Brackets with × count equal records among those shown. Some entries hold several experiments; the results are listed from low to high. Where survival is the endpoint, the PubChem record calls one and a half times the control and up active, and a quarter to a half above the control has no call in these data; cut-offs in other NCI protocols can differ.

Test system: Lewis lung carcinoma i.m., BDF1 mice, T/C %
Assay: NCI In Vivo Anticancer Drug Screen. Data for tumor model Lewis Lung Carcinoma (intramuscular) in B6D2F1 (BDF1) mice
Outline: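 Transplantable tumour model; readout survival or tumour size; value = treated (T) / vehicle control (C).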

[1] = T/C endpoint: median survival time, dose: 1.5 mg/kg/injection, schedule: Q01DX011 (ip), vehicle: saline, higher T/C = longer survival
[2] = T/C endpoint: median survival time, dose: 3.0 mg/kg/injection, schedule: Q01DX011 (ip), vehicle: saline, higher T/C = longer survival

Question: For `CCCCCCCCCCCCCC[n+]1ccccc1`, which survivor count (T/C endpoint: mean tumor weight (est.), dose: 0.5 mg/kg/injection, schedule: Q01DX011 (ip), vehicle: saline, higher T/C = larger tumour) is on record?
Answer: The survivor count was 3 of 8.

Question: And the survivor count (T/C endpoint: mean tumor weight (est.), dose: 1.0 mg/kg/injection, schedule: Q01DX011 (ip), vehicle: saline, higher T/C = larger tumour)?
Answer: Its survivor count is 1 of 8.

Question: What about the survivor count (T/C endpoint: median survival time, dose: 0.5 mg/kg/injection, schedule: Q01DX011 (ip), vehicle: saline, higher T/C = longer survival) of the same compound?
Answer: The survivor count was 3 of 8.

Question: And the survivor count (T/C endpoint: median survival time, dose: 1.0 mg/kg/injection, schedule: Q01DX011 (ip), vehicle: saline, higher T/C = longer survival)?
Answer: Its survivor count is 1 of 8.

Question: `O=Nc1c(N=O)c(N=O)c(N=O)c(N=O)c1N=O` was tested. Which survivor count (T/C endpoint: median survival time, dose: 40.0 mg/kg/injection, schedule: Q01DX011 (ip), vehicle: saline with Tween-80, higher T/C = longer survival) did it give?
Answer: Its survivor count is 3 of 8.

Question: What about the survivor count (T/C endpoint: median survival time, dose: 80.0 mg/kg/injection, schedule: Q01DX011 (ip), vehicle: saline with Tween-80, higher T/C = longer survival) of the same compound?
Answer: Its survivor count is 0 of 8.

Question: For `COc1ccc(OC)c(/C=C/c2ccnc3ccccc23)c1`, which survivor count (T/C endpoint: mean tumor weight (est.), dose: 200.0 mg/kg/injection, schedule: Q01DX011 (ip), vehicle: saline with Tween-80, higher T/C = larger tumour) is on record?
Answer: Its survivor count is 5 of 8.

Question: What about the survivor count (T/C endpoint: median survival time, dose: 200.0 mg/kg/injection, schedule: Q01DX011 (ip), vehicle: saline with Tween-80, higher T/C = longer survival) of the same compound?
Answer: Its survivor count is 5 of 8.

Question: What about the T/C (T/C endpoint: median survival time, dose: 400.0 mg/kg/injection, schedule: Q01DX011 (ip), vehicle: saline with Tween-80, higher T/C = longer survival) of the same compound?
Answer: Its T/C is 125 % of control.

Question: Which survivor count (T/C endpoint: median survival time, dose: 600.0 mg/kg/injection, schedule: Q01DX011 (ip), vehicle: saline, higher T/C = longer survival) does the source give for `Nc1ncnc2c1ncn2C1OC(CO)C(O)C1O` (centres undefined) here?
Answer: The survivor count was 7 of 8.

Question: What about the survivor count (T/C endpoint: median survival time, dose: 1200.0 mg/kg/injection, schedule: Q01DX011 (ip), vehicle: saline, higher T/C = longer survival) of the same compound?
Answer: Its survivor count is 0 of 8.

Question: What does the source list for `Cc1cc(C)c(NC(=O)N(CCCl)N=O)cc1C`?
Answer: survivor count (T/C endpoint: median survival time, dose: 23.0 mg/kg/injection, schedule: Q07DX003 (ip), vehicle: saline + alcohol, higher T/C = longer survival): 6 of 8; survivor count (T/C endpoint: median survival time, dose: 39.0 mg/kg/injection, schedule: Q07DX003 (ip), vehicle: saline + alcohol, higher T/C = longer survival): 6 of 8; survivor count (T/C endpoint: median survival time, dose: 65.0 mg/kg/injection, schedule: Q07DX003 (ip), vehicle: saline + alcohol, higher T/C = longer survival): 6 of 8; survivor count (T/C endpoint: median survival time, dose: 108.0 mg/kg/injection, schedule: Q07DX003 (ip), vehicle: saline + alcohol, higher T/C = longer survival): 7 of 8; survivor count (T/C endpoint: median survival time, dose: 180.0 mg/kg/injection, schedule: Q07DX003 (ip), vehicle: saline + alcohol, higher T/C = longer survival): 4 of 8

Question: What does the source list for `N[C@@H](Cc1ccc(N(CCCl)CCCl)cc1)C(=O)O`?
Answer: T/C (T/C endpoint: mean tumor weight, dose: 0.38 mg/kg/injection, schedule: Q01DX011 (ip), vehicle: saline, evaluated on day 12, higher T/C = larger tumour): 134 % of control [7 of 8 alive]; T/C (T/C endpoint: mean tumor weight, dose: 0.75 mg/kg/injection, schedule: Q01DX011 (ip), vehicle: saline, evaluated on day 12, higher T/C = larger tumour): 131 % of control [7 of 8 alive]; survivor count (T/C endpoint: mean tumor weight, dose: 6.0 mg/kg/injection, schedule: Q01DX011 (ip), vehicle: saline, higher T/C = larger tumour): 1 of 8 and 3 of 8; survivor count (T/C endpoint: median survival time, dose: 0.38 mg/kg/injection, schedule: Q01DX011 (ip), vehicle: saline, higher T/C = longer survival): 8 of 8; T/C (T/C endpoint: median survival time, dose: 1.2 mg/kg/injection, schedule: Q01DX011 (ip), vehicle: saline, higher T/C = longer survival): 133 % of control; T/C [1]: 138 % of control; survivor count [1]: 6 of 8; T/C (T/C endpoint: median survival time, dose: 2.5 mg/kg/injection, schedule: Q01DX011 (ip), vehicle: saline, higher T/C = longer survival): 144 % of control [9 of 10 alive]; survivor count (T/C endpoint: median survival time, dose: 3.0 mg/kg/injection, schedule: Q01DX011 (ip), vehicle: other, higher T/C = longer survival): 8 of 8; T/C [2]: 130 % of control; survivor count [2]: 8 of 8 (2×); survivor count (T/C endpoint: median survival time, dose: 5.0 mg/kg/injection, schedule: Q01DX011 (ip), vehicle: saline, higher T/C = longer survival): 10 of 10; survivor count (T/C endpoint: median survival time, dose: 6.0 mg/kg/injection, schedule: Q01DX011 (ip), vehicle: other, higher T/C = longer survival): 4 of 8; survivor count (T/C endpoint: median survival time, dose: 6.0 mg/kg/injection, schedule: Q01DX011 (ip), vehicle: saline, higher T/C = longer survival): 1 of 8 and 3 of 8 (2×); T/C (T/C endpoint: median survival time, dose: 9.0 mg/kg/injection, schedule: Q01DX001 (ip), vehicle: saline, higher T/C = longer survival): 129 % of control; survivor count (T/C endpoint: median survival time, dose: 10.0 mg/kg/injection, schedule: Q01DX011 (ip), vehicle: saline, higher T/C = longer survival): 1 of 10 and 6 of 10; T/C (T/C endpoint: median survival time, dose: 15.0 mg/kg/injection, schedule: Q01DX001 (ip), vehicle: saline, higher T/C = longer survival): 138 % of control; survivor count (T/C endpoint: median survival time, dose: 25.0 mg/kg/injection, schedule: Q01DX001 (ip), vehicle: saline, higher T/C = longer survival): 6 of 10 on day 45
